In the supplement of paper PMC4635364:
Counter-ions that a name gives are not always drawn. The list shows a part of the results. Single values are uncertain here, since repeats match poorly.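 ReNCell VM, a human fetal ventral-midbrain neural progenitor line, was differentiated without mitogens. Blinded raters scored images stained for doublecortin (early neurons) or tyrosine hydroxylase (dopaminergic neurons) against untreated wells (0 = no change). Scores were averaged across repeats and both raters, and compounds averaging 2 or more were selected as hits for retesting.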

Columns and labels:
ReNCell VM [1] = assay: neuronal differentiation score (DCX+ cell fraction vs untreated, manual image score) (score (-3 to 3)); higher = more neuronal differentiation; settings: 2 uM, 2 weeks
ReNCell VM [2] = assay: dopaminergic neuron differentiation score (TH+ cell fraction vs untreated, manual image score) (score (0 to 3)); higher = more TH+ dopaminergic neuron differentiation; settings: 2 uM, 4 weeks, BDNF 10 ng/ml + GDNF 10 ng/ml

Cc1cc(-c2ccc(/N=N/c3ccc4c(S(=O)(=O)O)cc(S(=O)(=O)O)c(N)c4c3O)c(C)c2)ccc1/N=N/c1ccc2c(S(=O)(=O)O)cc(S(=O)(=O)O)c(N)c2c1O
neuronal differentiation score (ReNCell VM [1]; library: Spectrum): inactive: 1
dopaminergic neuron differentiation score (ReNCell VM [2]; library: Spectrum): inactive: 0

C[C@]12CC[C@@H]3c4ccc(OS(=O)(=O)O)cc4CC[C@H]3[C@@H]1CCC2=O [Estropipate]
neuronal differentiation score (ReNCell VM [1]; library: Prestwick): inactive: 0
dopaminergic neuron differentiation score (ReNCell VM [2]; library: Prestwick): inactive: 0

FCOC(C(F)(F)F)C(F)(F)F
neuronal differentiation score (ReNCell VM [1]; library: Spectrum): inactive: 0
dopaminergic neuron differentiation score (ReNCell VM [2]; library: Spectrum): inactive: 0

C[C@]12CCC(=O)C=C1CC[C@@H]1[C@@H]2[C@@H](O)C[C@@]2(C)[C@H]1CC[C@]2(O)C(=O)COC(=O)CCC(=O)O [Hydrocortisone 21-hemisuccinate sodium]
neuronal differentiation score (ReNCell VM [1]; library: LOPAC): inactive: 0
dopaminergic neuron differentiation score (ReNCell VM [2]; library: LOPAC): inactive: 0

CCN(CC)CCCC(C)Nc1c2ccc(Cl)cc2nc2ccc(OC)cc12 (stereo not given) [Quinacrine dihydrochloride dihydrate]
neuronal differentiation score (ReNCell VM [1]; library: Prestwick): inactive: 0
dopaminergic neuron differentiation score (ReNCell VM [2]; library: Prestwick): inactive: 0

CC1CCc2cc(F)cc3c(=O)c(C(=O)O)cn1c23 (stereo not given)
neuronal differentiation score (ReNCell VM [1]; library: Spectrum): inactive: 0
dopaminergic neuron differentiation score (ReNCell VM [2]; library: Spectrum): inactive: 0

CCn1c(=O)[nH]c2ccccc21
neuronal differentiation score (ReNCell VM [1]; library: Tocriscreen): inactive: 0
dopaminergic neuron differentiation score (ReNCell VM [2]; library: Tocriscreen): inactive: 0

O=C1OC(OC(=O)c2cccnc2Nc2cccc(C(F)(F)F)c2)c2ccccc21 (stereo not given) [Talniflumate]
neuronal differentiation score (ReNCell VM [1]; library: Tocriscreen): inactive: 0
dopaminergic neuron differentiation score (ReNCell VM [2]; library: Tocriscreen): inactive: 0

CN1CCN(C2=Nc3ccccc3Oc3ccc(Cl)cc32)CC1
neuronal differentiation score (ReNCell VM [1]; library: Spectrum): inactive: 0
dopaminergic neuron differentiation score (ReNCell VM [2]; library: Spectrum): inactive: 0

Cc1nnc(-c2ccc3occ(-c4ccc([S+](C)[O-])cc4)c3c2)o1 (stereo not given)
neuronal differentiation score (ReNCell VM [1]; library: Tocriscreen): active: 3
dopaminergic neuron differentiation score (ReNCell VM [2]; library: Tocriscreen): inactive: 0

CC(C)CCC[C@@H](C)[C@H]1CC[C@H]2[C@@H]3CC[C@H]4CC(=O)CC[C@]4(C)[C@H]3CC[C@]12C
neuronal differentiation score (ReNCell VM [1]; library: Spectrum): inactive: 0
dopaminergic neuron differentiation score (ReNCell VM [2]; library: Spectrum): inactive: 0

NC(=O)c1ccc(-c2nc(-c3ccccn3)c(-c3ccc4c(c3)OCO4)[nH]2)cc1
neuronal differentiation score (ReNCell VM [1]; library: Tocriscreen): inactive: 0
dopaminergic neuron differentiation score (ReNCell VM [2]; library: Tocriscreen): inactive: 0

Cn1nnnc1SCC1=C(C(=O)O)N2C(=O)[C@@H](NC(=O)[C@H](OC=O)c3ccccc3)[C@H]2SC1
neuronal differentiation score (ReNCell VM [1]; library: Spectrum): inactive: -1
dopaminergic neuron differentiation score (ReNCell VM [2]; library: Spectrum): inactive: 0

CC(=O)OC[C@@]1(O)C[C@@]23CC[C@@H]4c5ccoc5CC[C@@]4(C)[C@@H]2CC[C@@H]1C3 [cafestol acetate]
neuronal differentiation score (ReNCell VM [1]; library: Natural): inactive: 0
dopaminergic neuron differentiation score (ReNCell VM [2]; library: Natural): inactive: 0

COc1ccccc1N1CCN(CCN(C(=O)C2CCCCC2)c2ccccn2)CC1
neuronal differentiation score (ReNCell VM [1]; library: LOPAC): inactive: 0
dopaminergic neuron differentiation score (ReNCell VM [2]; library: LOPAC): inactive: 0

O=C(CCc1ccc(O)cc1)c1c(O)cc(O)cc1O[C@@H]1OC(CO)[C@@H](O)[C@@H](O)C1O (stereo not given in full) [Phloridzin]
neuronal differentiation score (ReNCell VM [1]; library: Phytochemical): inactive: 1
dopaminergic neuron differentiation score (ReNCell VM [2]; library: Phytochemical): inactive: 0

NNC(=O)c1ccncc1 [Isoniazid]
neuronal differentiation score (ReNCell VM [1]; library: Prestwick): inactive: 0
dopaminergic neuron differentiation score (ReNCell VM [2]; library: Prestwick): inactive: 0

c1ccc([C@H]2CN3CCSC3=N2)cc1 [Levamisole hydrochloride]
neuronal differentiation score (ReNCell VM [1]; library: Prestwick): inactive: 0
dopaminergic neuron differentiation score (ReNCell VM [2]; library: Prestwick): inactive: 0

COc1ccc(C(=CC(=O)O)c2nccc3cc(OC)c(OC)cc23)cc1OC
neuronal differentiation score (ReNCell VM [1]; library: Natural): inactive: 0
dopaminergic neuron differentiation score (ReNCell VM [2]; library: Natural): inactive: 0

CC1NC(=O)OC1c1ccccc1 (stereo not given) [4-methyl-5-phenyl-2-oxazolidinone]
neuronal differentiation score (ReNCell VM [1]; library: Natural): inactive: 0
dopaminergic neuron differentiation score (ReNCell VM [2]; library: Natural): inactive: 0

C=CCN1CCc2cc(O)c(O)cc2C(c2ccccc2)C1 (stereo not given)
neuronal differentiation score (ReNCell VM [1]; library: Tocriscreen): inactive: 0
dopaminergic neuron differentiation score (ReNCell VM [2]; library: Tocriscreen): inactive: 0

Cn1c(=O)c2[nH]c(-c3ccccc3)nc2n(C)c1=O [1,3-Dimethyl-8-phenylxanthine]
neuronal differentiation score (ReNCell VM [1]; library: LOPAC): inactive: 0
dopaminergic neuron differentiation score (ReNCell VM [2]; library: LOPAC): inactive: 0

COCCOC(=O)C1=C(C)NC(C)=C(C(=O)OC(C)C)C1c1cccc([N+](=O)[O-])c1 (stereo not given)
neuronal differentiation score (ReNCell VM [1]; library: Spectrum): inactive: 0
dopaminergic neuron differentiation score (ReNCell VM [2]; library: Spectrum): inactive: 0

Cl.N[C@@H](CCC(=O)O)C(=O)O [L-Glutamic acid hydrochloride]
neuronal differentiation score (ReNCell VM [1]; library: LOPAC): inactive: 0
dopaminergic neuron differentiation score (ReNCell VM [2]; library: LOPAC): inactive: 0

CCC(=O)OCC(=O)[C@@]1(OC(=O)CC)[C@H](C)C[C@H]2[C@H]3[C@H]([C@@H](O)C[C@@]21C)[C@@]1(C)C=CC(=O)C=C1C[C@H]3Cl [Alclometasone dipropionate]
neuronal differentiation score (ReNCell VM [1]; library: Prestwick): inactive: 0
dopaminergic neuron differentiation score (ReNCell VM [2]; library: Prestwick): inactive: 0

CCN(CC)CC1CCN(c2ncc3ncnc(Nc4ccc(F)c(Cl)c4)c3n2)CC1 [BIBU 1361 dihydrochloride]
neuronal differentiation score (ReNCell VM [1]; library: Tocriscreen): inactive: 0
dopaminergic neuron differentiation score (ReNCell VM [2]; library: Tocriscreen): inactive: 0

Nc1nc(O)c2ncn(CCC(CO)CO)c2n1 [Penciclovir]
neuronal differentiation score (ReNCell VM [1]; library: Prestwick): inactive: 0
dopaminergic neuron differentiation score (ReNCell VM [2]; library: Prestwick): inactive: 0

COc1ccc(C2CNC(=O)C2)cc1OC1CCCC1 (stereo not given)
neuronal differentiation score (ReNCell VM [1]; library: Spectrum): inactive: 0
dopaminergic neuron differentiation score (ReNCell VM [2]; library: Spectrum): inactive: 0

COc1cc(NS(=O)(=O)c2ccc(N)cc2)nc(OC)n1
neuronal differentiation score (ReNCell VM [1]; library: Spectrum): inactive: 0
dopaminergic neuron differentiation score (ReNCell VM [2]; library: Spectrum): inactive: 0

CN(C)CCCSc1ccccc1NC(=O)/C=C/c1ccccc1 [Cinanserin hydrochloride]
neuronal differentiation score (ReNCell VM [1]; library: Tocriscreen): inactive: 0
dopaminergic neuron differentiation score (ReNCell VM [2]; library: Tocriscreen): inactive: 1
